Publication doi:10.1101/2022.01.28.478199
No constants are given. Whether binding was seen depends on the method and setting. In cells and extracts the contact can be indirect. Here binding means that the protein was enriched with, or labelled near, the bait; the list need not be complete. For some assays here: A no says only that the protein was not detected with the bait.

The chains behind the UniProt entries cited, without tags or fusion partners. Where a name states a change or a piece, a line headed by the entry shows the natural chain unless it says otherwise. Residues count along the entry.
UniProt P33416, residues 45-811: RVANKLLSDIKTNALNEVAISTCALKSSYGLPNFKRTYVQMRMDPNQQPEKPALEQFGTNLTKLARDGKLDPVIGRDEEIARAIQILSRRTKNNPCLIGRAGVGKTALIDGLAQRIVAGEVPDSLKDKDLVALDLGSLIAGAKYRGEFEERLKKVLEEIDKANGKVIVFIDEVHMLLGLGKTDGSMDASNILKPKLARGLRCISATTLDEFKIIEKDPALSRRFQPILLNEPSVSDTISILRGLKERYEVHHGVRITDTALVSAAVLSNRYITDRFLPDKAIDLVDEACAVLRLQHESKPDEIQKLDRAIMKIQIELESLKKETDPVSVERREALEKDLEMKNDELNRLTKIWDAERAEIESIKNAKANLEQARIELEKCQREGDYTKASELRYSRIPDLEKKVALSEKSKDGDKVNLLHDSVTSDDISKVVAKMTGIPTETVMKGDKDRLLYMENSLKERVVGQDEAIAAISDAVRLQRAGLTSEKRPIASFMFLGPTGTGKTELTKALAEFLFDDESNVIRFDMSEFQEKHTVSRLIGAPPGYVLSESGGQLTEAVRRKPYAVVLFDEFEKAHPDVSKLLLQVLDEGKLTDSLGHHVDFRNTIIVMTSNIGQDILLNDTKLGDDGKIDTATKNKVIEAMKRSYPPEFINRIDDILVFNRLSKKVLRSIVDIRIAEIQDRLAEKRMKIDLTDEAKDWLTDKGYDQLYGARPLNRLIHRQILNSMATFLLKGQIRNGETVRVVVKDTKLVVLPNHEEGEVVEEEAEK

B1: Ilv2 (protein, UniProt P07342 91-687)
chain: GLTGGQIFNEMMSRQNVDTVFGYPGGAILPVYDAIHNSDKFNFVLPKHEQGAGHMAEGYARASGKPGVVLVTSGPGATNVVTPMADAFADGIPMVVFTGQVPTSAIGTDAFQEADVVGISRSCTKWNVMVKSVEELPLRINEAFEIATSGRPGPVLVDLPKDVTAAILRNPIPTKTTLPSNALNQLTSRAQDEFVMQSINKAADLINLAKKPVLYVGAGILNHADGPRLLKELSDRAQIPVTTTLQGLGSFDQEDPKSLDMLGMHGCATANLAVQNADLIIAVGARFDDRVTGNISKFAPEARRAAAEGRGGIIHFEVSPKNINKVVQTQIAVEGDATTNLGKMMSKIFPVKERSEWFAQINKWKKEYPYAYMEETPGSKIKPQTVIKKLSKVANDTGRHVIVTTGVGQHQMWAAQHWTWRNPHTFITSGGLGTMGYGLPAAIGAQVAKPESLVIDIDGDASFNMTLTELSSAVQAGTPVKILILNNEEQGMVTQWQSLFYEHRYSHTHQLNPDFIKLAEAMGLKGLRVKKQEELDAKLKEFVSTKGPVLLEVEVDKKVPVLPMVAGGSGLDEFINFDPEVERQQTELRHKRTGGKH
B2: Alt1 (protein, UniProt P52893 65-592)
chain: SSSWIVAQNHRRSLSGQSSLNDLRHLNRFPHHTLKTSNNEFYPAEQLTLEDVNENVLKAKYAVRGAIPMRAEELKAQLEKDPQSLPFDRIINANIGNPQQLQQKPLTYYRQVLSLLQYPELLNQNEQQLVDSKLFKLDAIKRAKSLMEDIGGSVGAYSSSQGVEGIRKSVAEFITKRDEGEISYPEDIFLTAGASAAVNYLLSIFCRGPETGVLIPIPQYPLYTATLALNNSQALPYYLDENSGWSTNPEEIETVVKEAIQNEIKPTVLVVINPGNPTGAVLSPESIAQIFEVAAKYGTVVIADEVYQENIFPGTKFHSMKKILRHLQREHPGKFDNVQLASLHSTSKGVSGECGQRGGYMELTGFSHEMRQVILKLASISLCPVVTGQALVDLMVRPPVEGEESFESDQAERNSIHEKLITRAMTLYETFNSLEGIECQKPQGAMYLFPKIDLPFKAVQEARHLELTPDEFYCKKLLESTGICTVPGSGFGQEPGTYHLRTTFLAPGLEWIKKWESFHKEFFDQYRD
B3: Prx1 (protein, UniProt P34227 14-261)
chain: AWTLPKQAHLQSQTIKTFATAPILCKQFKQSDQPRLRINSDAPNFDADTTVGKINFYDYLGDSWGVLFSHPADFTPVCTTEVSAFAKLKPEFDKRNVKLIGLSVEDVESHEKWIQDIKEIAKVKNVGFPIIGDTFRNVAFLYDMVDAEGFKNINDGSLKTVRSVFVIDPKKKIRLIFTYPSTVGRNTSEVLRVIDALQLTDKEGVVTPINWQPADDVIIPPSVSNDEAKAKFGQFNEIKPYLRFTKSK
B4: Mcr1 (NADH-cytochrome b5 reductase) (protein, UniProt P36060 1-302)
chain: MFSRLSRSHSKALPIALGTVAIAAATAFYFANRNQHSFVFNESNKVFKGDDKWIDLPISKIEEESHDTRRFTFKLPTEDSEMGLVLASALFAKFVTPKGSNVVRPYTPVSDLSQKGHFQLVVKHYEGGKMTSHLFGLKPNDTVSFKGPIMKWKWQPNQFKSITLLGAGTGINPLYQLAHHIVENPNDKTKVNLLYGNKTPQDILLRKELDALKEKYPDKFNVTYFVDDKQDDQDFDGEISFISKDFIQEHVPGPKESTHLFVCGPPPFMNAYSGEKKSPKDQGELIGILNNLGYSKDQVFKF
B5: Aco1 (aconitase) (protein, UniProt P19414 17-778)
chain: ATVSNLTRDSKVNQNLLEDHSFINYKQNVETLDIVRKRLNRPFTYAEKILYGHLDDPHGQDIQRGVSYLKLRPDRVACQDATAQMAILQFMSAGLPQVAKPVTVHCDHLIQAQVGGEKDLKRAIDLNKEVYDFLASATAKYNMGFWKPGSGIIHQIVLENYAFPGALIIGTDSHTPNAGGLGQLAIGVGGADAVDVMAGRPWELKAPKILGVKLTGKMNGWTSPKDIILKLAGITTVKGGTGKIVEYFGDGVDTFSATGMGTICNMGAEIGATTSVFPFNKSMIEYLEATGRGKIADFAKLYHKDLLSADKDAEYDEVVEIDLNTLEPYINGPFTPDLATPVSKMKEVAVANNWPLDVRVGLIGSCTNSSYEDMSRSASIVKDAAAHGLKSKTIFTVTPGSEQIRATIERDGQLETFKEFGGIVLANACGPCIGQWDRRDIKKGDKNTIVSSYNRNFTSRNDGNPQTHAFVASPELVTAFAIAGDLRFNPLTDKLKDKDGNEFMLKPPHGDGLPQRGYDAGENTYQAPPADRSTVEVKVSPTSDRLQLLKPFKPWDGKDAKDMPILIKAVGKTTTDHISMAGPWLKYRGHLENISNNYMIGAINAENKKANCVKNVYTGEYKGVPDTARDYRDQGIKWVVIGDENFGEGSSREHAALEPRFLGGFAIITKSFARIHETNLKKQGLLPLNFKNPADYDKINPDDRIDILGLAELAPGKPVTMRVHPKNGKPWDAVLTHTFNDEQIEWFKYGSALNKIKADEKK
B6: Sdh2 (protein, UniProt P21801 21-266)
chain: TATTAAATHTPRLKTFKVYRWNPDEPSAKPHLQSYQVDLNDCGPMVLDALLKIKDEQDSTLTFRRSCREGICGSCAMNIGGRNTLACICKIDQNESKQLKIYPLPHMFIVKDLVPDLTNFYQQYKSIQPYLQRSSFPKDGTEVLQSIEDRKKLDGLYECILCACCSTSCPSYWWNQEQYLGPAVLMQAYRWLIDSRDQATKTRKAMLNNSMSLYRCHTIMNCTRTCPKGLNPGLAIAEIKKSLAFA
B7: Ald4 (aldehyde dehydrogenase) (protein, UniProt P46367 25-519)
chain: SHLPMTVPIKLPNGLEYEQPTGLFINNKFVPSKQNKTFEVINPSTEEEICHIYEGREDDVEEAVQAADRAFSNGSWNGIDPIDRGKALYRLAELIEQDKDVIASIETLDNGKAISSSRGDVDLVINYLKSSAGFADKIDGRMIDTGRTHFSYTKRQPLGVCGQIIPWNFPLLMWAWKIAPALVTGNTVVLKTAESTPLSALYVSKYIPQAGIPPGVINIVSGFGKIVGEAITNHPKIKKVAFTGSTATGRHIYQSAAAGLKKVTLELGGKSPNIVFADAELKKAVQNIILGIYYNSGEVCCAGSRVYVEESIYDKFIEEFKAASESIKVGDPFDESTFQGAQTSQMQLNKILKYVDIGKNEGATLITGGERLGSKGYFIKPTVFGDVKEDMRIVKEEIFGPVVTVTKFKSADEVINMANDSEYGLAAGIHTSNINTALKVADRVNAGTVWINTYNDFHHAVPFGGFNASGLGREMSVDALQNYLQVKAVRAKLDE
B8: Fum1 (protein, UniProt P08417 25-488)
chain: NSSFRTETDAFGEIHVPADKYWGAQTQRSFQNFKIGGARERMPLPLVHAFGVLKKSAAIVNESLGGLDPKISKAIQQAADEVASGKLDDHFPLVVFQTGSGTQSNMNANEVISNRAIEILGGKIGSKQVHPNNHCNQSQSSNDTFPTVMHIAASLQIQNELIPELTNLKNALEAKSKEFDHIVKIGRTHLQDATPLTLGQEFSGYVQQVENGIQRVAHSLKTLSFLAQGGTAVGTGLNTKPGFDVKIAEQISKETGLKFQTAPNKFEALAAHDAIVECSGALNTLACSLFKIAQDIRYLGSGPRCGYHELMLPENEPGSSIMPGKVNPTQNEALTQVCVQVMGNNAAITFAGSQGQFELNVFKPVMIANLLNSIRLITDAAYSFRVHCVEGIKANEPRIHELLTKSLMLVTALNPKIGYDAASKVAKNAHKKGITLKESALELGVLTEKEFDEWVVPEHMLGPK
B9: Lsc2 (subunit of the succinate-CoA ligase) (protein, UniProt P53312 31-427)
chain: LSIHEYRSAQLLREYGIGTPEGFPAFTPEEAFEAAKKLNTNKLVIKAQALTGGRGKGHFDTGYKSGVHMIESPQQAEDVAKEMLNHNLITKQTGIAGKPVSAVYIVKRVDTKHEAYLSILMDRQTKKPMIIASSQGGMNIEEVAERTPDAIKKFSIETSKGLSPQMAKDVAKSLGFSPDAQDEAAKAVSNLYKIFMERDATQVEINPLSEIEHDPTHKIMCTDAKFGFDDNASFRQEKIYSWRDLSQEDPDEVKAKKYDLNFVKLKGNIGCLVNGAGLAMATMDVIKLNGGDPANFLDCGGGATPETIKQGFELILSNKNVDAIFVNIFGGIVRCDYVALGLVEAARELEVRVPIVARLQGTKVEEGRDIINKSGVKIYSFDELDPAAKKVVELTQN
B10: Ilv5 (protein, UniProt P06168 48-395)
chain: LKQINFGGTVETVYERADWPREKLLDYFKNDTFALIGYGSQGYGQGLNLRDNGLNVIIGVRKDGASWKAAIEDGWVPGKNLFTVEDAIKRGSYVMNLLSDAAQSETWPAIKPLLTKGKTLYFSHGFSPVFKDLTHVEPPKDLDVILVAPKGSGRTVRSLFKEGRGINSSYAVWNDVTGKAHEKAQALAVAIGSGYVYQTTFEREVNSDLYGERGCLMGGIHGMFLAQYDVLRENGHSPSEAFNETVEEATQSLYPLIGKYGMDYMYDACSTTARRGALDWYPIFKNALKPVFQDLYESTKNGTETKRSLEFNSQPDYREKLEKELDTIRNMEIWKVGKEVRKLRPENQ
B11: Lsp1 (protein, UniProt Q12230 1-341)
chain: MHRTYSLRNQRAPTAAELQAPPPPPSSTKSKFFGKASIASSFRKNAAGNFGPELARKLSQLVKTEKGVLRAMEVVASERREAAKQLSLWGADNDDDVSDVTDKLGVLIYELGELQDQFIDKYDQYRVTLKSIRNIEASVQPSRDRKEKITDEIAHLKYKDPQSTKIPVLEQELVRAEAESLVAEAQLSNITREKLKAAYSYMFDSLRELSEKFALIAGYGKALLELLDDSPVTPGEARPAYDGYEASRQIIMDAESALESWTLDMAAVKPTLSFHQTVDDVYEDEDGEEEEEPEIQNGDIPGQVVEEEEVEWTTEVPVDDEAHEADHHVSQNGHTSGSENI
B12: Pil1 (protein, UniProt P53252 1-339)
chain: MHRTYSLRNSRAPTASQLQNPPPPPSTTKGRFFGKGGLAYSFRRSAAGAFGPELSRKLSQLVKIEKNVLRSMELTANERRDAAKQLSIWGLENDDDVSDITDKLGVLIYEVSELDDQFIDRYDQYRLTLKSIRDIEGSVQPSRDRKDKITDKIAYLKYKDPQSPKIEVLEQELVRAEAESLVAEAQLSNITRSKLRAAFNYQFDSIIEHSEKIALIAGYGKALLELLDDSPVTPGETRPAYDGYEASKQIIIDAESALNEWTLDSAQVKPTLSFKQDYEDFEPEEGEEEEEEDGQGRWSEDEQEDGQIEEPEQEEEGAVEEHEQVGHQQSESLPQQTTA

What was measured:
[1] = molecular target: Hsp78-6xHis (wild-type Hsp78 with a C-terminal 6x polyhistidine-tag) (S. cerevisiae) (UniProt P33416); test: affinity purification with mass spectrometry
[2] = molecular target: Hsp78TR-6xHis (Hsp78 E216Q/E614Q Walker B mutant with a C-terminal 6x polyhistidine-tag) (S. cerevisiae) (UniProt P33416); test: affinity purification with mass spectrometry

| Binder | binding [1] | binding [2] |
| --- | --- | --- |
| B1 | binds | – |
| B2 | binds | binds |
| B3 | binds | binds |
| B4 | binds | binds |
| B5 | binds | – |
| B6 | binds | binds |
| B7 | binds | binds |
| B8 | binds | – |
| B9 | – | binds |
| B10 | – | binds |
| B11 | no binding | – |
| B12 | no binding | – |
